Measured values from the supplement of paper PMC12067093, “Discovery and optimisation of a covalent ligand for TRIM25 and its application to targeted protein ubiquitination” (Chemical Science, 2025).
The list shows a part of the results.

Chains of the proteins cited; added tags and fusions are not shown. Lines headed by an entry give the natural chain unless they say otherwise; changes in a name come on top.
UniProt Q9NTX7: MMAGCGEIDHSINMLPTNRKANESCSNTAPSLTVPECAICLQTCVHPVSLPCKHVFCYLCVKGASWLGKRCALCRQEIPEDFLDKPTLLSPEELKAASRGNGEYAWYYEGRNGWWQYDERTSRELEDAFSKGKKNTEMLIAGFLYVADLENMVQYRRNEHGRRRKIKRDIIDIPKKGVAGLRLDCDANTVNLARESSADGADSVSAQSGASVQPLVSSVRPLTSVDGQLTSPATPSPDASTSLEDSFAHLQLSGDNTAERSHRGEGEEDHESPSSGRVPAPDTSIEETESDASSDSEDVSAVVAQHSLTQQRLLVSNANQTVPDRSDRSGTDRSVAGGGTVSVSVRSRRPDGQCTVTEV
UniProt P49247: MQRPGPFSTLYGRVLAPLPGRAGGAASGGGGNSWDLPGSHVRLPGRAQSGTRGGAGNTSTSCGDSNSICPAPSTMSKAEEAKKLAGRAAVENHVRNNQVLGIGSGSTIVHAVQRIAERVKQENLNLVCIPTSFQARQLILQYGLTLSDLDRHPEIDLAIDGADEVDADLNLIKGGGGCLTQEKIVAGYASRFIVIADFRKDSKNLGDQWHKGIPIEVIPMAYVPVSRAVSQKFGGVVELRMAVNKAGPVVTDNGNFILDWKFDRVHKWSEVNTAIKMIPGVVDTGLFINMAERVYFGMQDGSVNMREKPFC
UniProt Q5M7Z0: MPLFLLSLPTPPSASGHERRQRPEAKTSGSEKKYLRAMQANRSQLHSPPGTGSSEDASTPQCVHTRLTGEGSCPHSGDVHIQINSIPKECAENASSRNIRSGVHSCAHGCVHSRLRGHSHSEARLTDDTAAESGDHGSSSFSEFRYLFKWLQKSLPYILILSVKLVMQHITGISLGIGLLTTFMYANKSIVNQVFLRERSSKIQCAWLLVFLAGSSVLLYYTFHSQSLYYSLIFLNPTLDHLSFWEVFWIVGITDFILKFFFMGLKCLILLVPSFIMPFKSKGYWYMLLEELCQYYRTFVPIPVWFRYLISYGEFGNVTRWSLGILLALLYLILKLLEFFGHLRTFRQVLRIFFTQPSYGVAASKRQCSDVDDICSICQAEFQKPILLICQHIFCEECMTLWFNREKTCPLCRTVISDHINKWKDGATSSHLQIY
UniProt P13489: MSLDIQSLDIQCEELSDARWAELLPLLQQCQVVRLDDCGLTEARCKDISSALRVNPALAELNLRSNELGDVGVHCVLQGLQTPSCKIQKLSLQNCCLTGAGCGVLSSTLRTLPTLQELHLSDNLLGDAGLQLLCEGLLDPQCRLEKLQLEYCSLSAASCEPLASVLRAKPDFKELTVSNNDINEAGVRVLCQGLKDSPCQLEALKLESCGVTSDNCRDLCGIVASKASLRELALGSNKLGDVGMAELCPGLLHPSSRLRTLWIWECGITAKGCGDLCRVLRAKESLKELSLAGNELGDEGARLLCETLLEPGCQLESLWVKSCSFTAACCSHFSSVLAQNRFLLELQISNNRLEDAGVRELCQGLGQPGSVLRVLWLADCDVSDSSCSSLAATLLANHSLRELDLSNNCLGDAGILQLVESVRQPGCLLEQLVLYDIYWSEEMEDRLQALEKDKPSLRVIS
UniProt P27694, whole entry, looked up: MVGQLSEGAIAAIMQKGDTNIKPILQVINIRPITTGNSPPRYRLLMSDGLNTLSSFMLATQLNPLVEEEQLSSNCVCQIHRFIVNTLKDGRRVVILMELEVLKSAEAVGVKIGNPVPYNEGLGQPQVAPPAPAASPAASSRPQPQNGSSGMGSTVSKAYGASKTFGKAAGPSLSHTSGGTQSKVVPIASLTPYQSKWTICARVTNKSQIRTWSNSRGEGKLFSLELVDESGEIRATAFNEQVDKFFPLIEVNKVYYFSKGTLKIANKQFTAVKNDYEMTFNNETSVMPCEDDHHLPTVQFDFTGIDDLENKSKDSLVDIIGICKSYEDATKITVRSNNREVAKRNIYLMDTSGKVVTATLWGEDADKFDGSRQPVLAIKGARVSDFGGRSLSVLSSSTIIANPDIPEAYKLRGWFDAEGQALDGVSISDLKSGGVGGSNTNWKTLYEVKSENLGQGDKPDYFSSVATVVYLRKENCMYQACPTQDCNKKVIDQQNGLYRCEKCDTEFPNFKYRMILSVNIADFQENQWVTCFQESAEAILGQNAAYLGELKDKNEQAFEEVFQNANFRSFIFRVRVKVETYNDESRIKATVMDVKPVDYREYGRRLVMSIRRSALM
UniProt O43148, whole entry, looked up: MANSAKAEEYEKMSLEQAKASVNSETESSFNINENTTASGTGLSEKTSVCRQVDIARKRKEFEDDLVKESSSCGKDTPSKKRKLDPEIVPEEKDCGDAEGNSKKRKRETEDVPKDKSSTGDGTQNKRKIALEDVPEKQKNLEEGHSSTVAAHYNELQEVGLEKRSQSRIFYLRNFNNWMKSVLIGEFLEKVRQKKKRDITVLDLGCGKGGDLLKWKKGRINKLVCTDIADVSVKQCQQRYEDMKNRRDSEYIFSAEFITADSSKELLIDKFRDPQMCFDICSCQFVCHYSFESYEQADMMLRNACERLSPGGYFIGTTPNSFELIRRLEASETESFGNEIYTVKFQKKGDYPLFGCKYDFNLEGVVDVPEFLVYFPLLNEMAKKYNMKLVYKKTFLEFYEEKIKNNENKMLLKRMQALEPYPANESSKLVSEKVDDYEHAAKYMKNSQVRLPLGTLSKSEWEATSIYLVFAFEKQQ

Compound: CC1Cc2ccccc2N1C(=O)C1CCCN(C1)C(=O)CCl (mixture of isomers) [TRIM25 ligand 11 (diastereomer mixture)]
Assay: probe-labelled cysteine peptide fold change vs DMSO (competition) (log2 fold change); higher = less target engagement (more negative = stronger competition)
Conditions: THP-1, incubation time: 4 h
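Further: competitive chemoproteomic profiling in live THP-1 cells with an iodoacetamide desthiobiotin (IA-DTB) probe, comparing probe-labelled peptide intensities in compound-treated cells against DMSO-treated controls.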

Row | Target | probe-labelled cysteine peptide fold change (10 µM) | probe-labelled cysteine peptide fold change (50 µM)
1 | RNF146_Q9NTX7_57_HVFCYLCVK (UniProt Q9NTX7) | -0.0339 | -0.132
2 | RPIA_P49247_128_VKQENLNLVCIPTSFQAR (UniProt P49247) | -0.172 | -0.014
3 | RNFT1_Q5M7Z0_90_ECAENASSR (UniProt Q5M7Z0) | -0.133 | -0.118
4 | RNH1_P13489_96_LSLQNCCLTGAGCGVLSSTLR (UniProt P13489) | -0.0454 | 0.0308
5 | RPL7_P18124_186_YGIICMEDLIHEIYTVGKR (UniProt P18124) | -0.276 | -0.172
6 | RPL28_P46779_13_NCSSFLIK (UniProt P46779) | -0.0475 | 0.0779
7 | RPA1_P27694_503_CDTEFPNFK (UniProt P27694) | -0.0985 | 0.0316
8 | RNMT_O43148_73_ESSSCGK (UniProt O43148) | -0.135 | -0.174
9 | RPL3_P39023_114_TVFAEHISDECKR (UniProt P39023) | 0.0509 | -0.257
10 | RNF213_Q63HN8_1788_CLPAFLPDCLDLETLGHCLAHLAGMGGSPVER (UniProt Q63HN8) | -0.259 | -0.11
11 | RPL7A_P62424_182_KMGVPYCIIK (UniProt P62424) | -0.287 | -0.249
12 | RPL10A_P62906_74_FSVCVLGDQQHCDEAK (UniProt P62906) | 0.00411 | -0.082
13 | RNH1_P13489_248_LGDVGMAELCPGLLHPSSR (UniProt P13489) | 0.0799 | -0.0899
14 | RNH1_P13489_323+330_SCSFTAACCSHFSSVLAQNR (UniProt P13489) | 0.197 | -0.0557

Another view of some results above:
Row	Target	probe-labelled cysteine peptide fold change (10 µM)	probe-labelled cysteine peptide fold change (50 µM)
2	RPIA_P49247_128_VKQENLNLVCIPTSFQAR (UniProt P49247)	-0.172	-0.014
14	RNH1_P13489_323+330_SCSFTAACCSHFSSVLAQNR (UniProt P13489)	0.197	-0.0557
